Results are given in words; binding and its absence hold for the method and conditions named. For some assays here: In cells and extracts the contact can be indirect. Some entries that bind do so weakly or less than the wild type. Sequences can lack the tags named with a protein.

Assay [1] deals with T1, ID2 (co-transfected / co-expressed in 293T cells) (Homo sapiens (Human)) (UniProt Q02363).
T1 sequence: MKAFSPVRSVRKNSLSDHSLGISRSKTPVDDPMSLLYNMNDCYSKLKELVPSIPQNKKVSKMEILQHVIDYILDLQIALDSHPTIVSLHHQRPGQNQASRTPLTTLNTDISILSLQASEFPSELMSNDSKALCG
In words: Flag immunoprecipitation of DUBs from 293T cells cotransfected with ID2, MG-132 treated; blot for ID2 (FIG. 2B).

For assay [2], the target named is T1, ID2 (co-transfected / co-expressed in 293T cells) (Homo sapiens (Human)). Kind of assay: discussion of the DUB screen and co-immunoprecipitation (FIG. 2).

B1: USP33-Flag (human USP33 with C-terminal Flag epitope) (enzyme, UniProt Q8TEY7 1-942, looked up, not shown: small tags and cut ends)
chain: MTGSNSHITILTLKVLPHFESLGKQEKIPNKMSAFRNHCPHLDSVGEITKEDLIQKSLGTCQDCKVQGPNLWACLENRCSYVGCGESQVDHSTIHSQETKHYLTVNLTTLRVWCYACSKEVFLDRKLGTQPSLPHVRQPHQIQENSVQDFKIPSNTTLKTPLVAVFDDLDIEADEEDELRARGLTGLKNIGNTCYMNAALQALSNCPPLTQFFLDCGGLARTDKKPAICKSYLKLMTELWHKSRPGSVVPTTLFQGIKTVNPTFRGYSQQDAQEFLRCLMDLLHEELKEQVMEVEEDPQTITTEETMEEDKSQSDVDFQSCESCSNSDRAENENGSRCFSEDNNETTMLIQDDENNSEMSKDWQKEKMCNKINKVNSEGEFDKDRDSISETVDLNNQETVKVQIHSRASEYITDVHSNDLSTPQILPSNEGVNPRLSASPPKSGNLWPGLAPPHKKAQSASPKRKKQHKKYRSVISDIFDGTIISSVQCLTCDRVSVTLETFQDLSLPIPGKEDLAKLHSSSHPTSIVKAGSCGEAYAPQGWIAFFMEYVKRFVVSCVPSWFWGPVVTLQDCLAAFFARDELKGDNMYSCEKCKKLRNGVKFCKVQNFPEILCIHLKRFRHELMFSTKISTHVSFPLEGLDLQPFLAKDSPAQIVTYDLLSVICHHGTASSGHYIAYCRNNLNNLWYEFDDQSVTEVSESTVQNAEAYVLFYRKSSEEAQKERRRISNLLNIMEPSLLQFYISRQWLNKFKTFAEPGPISNNDFLCIHGGVPPRKAGYIEDLVLMLPQNIWDNLYSRYGGGPAVNHLYICHTCQIEAEKIEKRRKTELEIFIRLNRAFQKEDSPATFYCISMQWFREWESFVKGKDGDPPGPIDNTKIAVTKCGNVMLRQGADSGQISEETWNFLQSIYGGGPEVILRPPVVHVDPDILQAEEKIEVETRSL
With B1, the binding result in assay [1] and in assay [2] was “binds” in each case.
